Drawing on the supplement of paper PMC8256030, this text covers mCherry and percent effect for ten compounds.

Some of the results follow. This data set is noisy: repeats of one test often differ as much as different tests do.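 HEK293T cells were given each compound shortly before transfection with a reporter in which red mCherry is followed by the SARS-CoV-2 frameshift element and then GFP in the −1 frame, so GFP appears only after frameshifting.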

Assay [1] deals with SARS-CoV-2 -1 PRF reporter mCherry-FSE-GFP(-1). Briefly: mCherry (red) intensity as percent of control; higher = higher upstream reporter expression. To be noted: 10 µM; 24 h; HEK293T.
The test system is the same in assay [2]. Briefly: percent effect, decrease of GFP/mCherry ratio (-1 PRF reporter) relative to controls; higher = stronger frameshift inhibition. To be noted: 10 µM; 24 h; HEK293T.

For `NC(=O)C1c2ccccc2CCc2ccccc21` [cyheptamide], in assay [1], the mCherry turned out to be 79.2%. Moreover, the percent effect in assay [2] was -5.18%.

For the compound `CC1/C=C/C=C/C=C/C=C/C=C/C=C/C=C/C(OC2O[C@H](C)[C@@H](O)[C@H](N)[C@@H]2O)CC(O)C(C(=O)O)C(O)CC(=O)CC(O)CC(O)CC(O)CC(=O)CCCC(=O)CC(=O)OC1C(C)CC(C)C(O)CC(=O)c1ccc(N)cc1` (stereo not given in full), the mCherry in assay [1] was determined as 100%. Further, the percent effect in assay [2] was -4.55%.

With `CO[C@H]1C[C@@H]2CC[C@@H](C)[C@@](O)(O2)C(=O)C(=O)N2CCCC[C@H]2C(=O)O[C@H]([C@H](C)C[C@@H]2CC[C@@H](O)[C@H](OC)C2)CC(=O)[C@H](C)/C=C(\C)[C@@H](O)[C@@H](OC)C(=O)[C@H](C)C[C@H](C)/C=C/C=C/C=C/1C` [Rapamycin], the mCherry in assay [1] was found to be 105%. In assay [2], the percent effect is -2.12%.

Take `NCCCCCC(=O)O`: the mCherry in assay [1] was found to be 80.7%. Also, the percent effect in assay [2] is -2.3%.

For `CN(C)[C@@H]1C(=O)C(C(=O)NCNCCCC[C@H](N)C(=O)O)=C(O)[C@@]2(O)C(=O)C3=C(O)c4c(O)cccc4[C@@](C)(O)[C@H]3C[C@@H]12` [Lymecycline], the mCherry in assay [1] was found to be 87.6%. The percent effect in assay [2] was -1.09%.

For the compound `COc1cc(N)c(Cl)cc1C(=O)N[C@@H]1CCNC[C@@H]1OC` [ticalopride], the mCherry in assay [1] amounted to 67.8%. In assay [2], the percent effect is -2.1%.

`Cc1cc2c(s1)Nc1ccccc1N=C2N1CCN(C)CC1` registered a mCherry in assay [1] of 88.6%. Further, the percent effect in assay [2] was -3.14%.

For `CC(C)(C)NCC(O)COc1cccc2c1CCC(=O)N2` (stereo not given), the mCherry in assay [1] came out at 91.9%. Moreover, the percent effect in assay [2] is -3.26%.

`CCCCCCOC(=O)NC(=N)c1ccc(NCc2nc3cc(C(=O)N(CCC(=O)OCC)c4ccccn4)ccc3n2C)cc1`: the mCherry in assay [1] was found to be 87.2%. Moreover, the percent effect in assay [2] is -0.458%.

In assay [1], `OCCc1ccccc1` yielded a mCherry of 108%. Further, in assay [2], the percent effect was -2.87%.
